Measurements: paper doi:10.1101/2022.03.17.484727
No constants are given. Whether binding was seen depends on the method and setting. In cells and extracts the contact can be indirect. Some binding calls cover weakened binding; strength is not graded here. Tags and fused reporters may be left off the sequences shown. Blank lines part the entries; values can stand above or below the molecule they belong to.

Sequences of proteins named here, by UniProt entry; tags and fusion partners are left off. A change or cut given only in a name is not applied to a line headed by its entry. A line that says so, or that is headed by a name, gives the form on record, which may keep a tag or linker.
UniProt Q14258: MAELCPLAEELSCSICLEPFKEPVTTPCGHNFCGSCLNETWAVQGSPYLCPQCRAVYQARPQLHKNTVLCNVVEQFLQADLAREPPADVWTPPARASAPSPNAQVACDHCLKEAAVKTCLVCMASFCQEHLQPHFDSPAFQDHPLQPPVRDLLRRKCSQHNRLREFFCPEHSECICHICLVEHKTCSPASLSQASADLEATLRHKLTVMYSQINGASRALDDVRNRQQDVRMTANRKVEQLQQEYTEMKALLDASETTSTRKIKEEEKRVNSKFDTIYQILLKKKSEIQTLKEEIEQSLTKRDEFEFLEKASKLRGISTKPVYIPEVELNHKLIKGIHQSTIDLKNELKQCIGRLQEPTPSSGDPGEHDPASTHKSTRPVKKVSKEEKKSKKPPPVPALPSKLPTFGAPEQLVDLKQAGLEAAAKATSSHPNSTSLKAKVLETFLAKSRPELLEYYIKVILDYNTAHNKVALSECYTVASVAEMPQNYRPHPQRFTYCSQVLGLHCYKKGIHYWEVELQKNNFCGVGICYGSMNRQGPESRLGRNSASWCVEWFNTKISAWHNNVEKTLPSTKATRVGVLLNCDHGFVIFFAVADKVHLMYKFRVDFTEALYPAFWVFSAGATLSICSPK
FLAG-tagged TRIM25-PTAA (Q14258, form named): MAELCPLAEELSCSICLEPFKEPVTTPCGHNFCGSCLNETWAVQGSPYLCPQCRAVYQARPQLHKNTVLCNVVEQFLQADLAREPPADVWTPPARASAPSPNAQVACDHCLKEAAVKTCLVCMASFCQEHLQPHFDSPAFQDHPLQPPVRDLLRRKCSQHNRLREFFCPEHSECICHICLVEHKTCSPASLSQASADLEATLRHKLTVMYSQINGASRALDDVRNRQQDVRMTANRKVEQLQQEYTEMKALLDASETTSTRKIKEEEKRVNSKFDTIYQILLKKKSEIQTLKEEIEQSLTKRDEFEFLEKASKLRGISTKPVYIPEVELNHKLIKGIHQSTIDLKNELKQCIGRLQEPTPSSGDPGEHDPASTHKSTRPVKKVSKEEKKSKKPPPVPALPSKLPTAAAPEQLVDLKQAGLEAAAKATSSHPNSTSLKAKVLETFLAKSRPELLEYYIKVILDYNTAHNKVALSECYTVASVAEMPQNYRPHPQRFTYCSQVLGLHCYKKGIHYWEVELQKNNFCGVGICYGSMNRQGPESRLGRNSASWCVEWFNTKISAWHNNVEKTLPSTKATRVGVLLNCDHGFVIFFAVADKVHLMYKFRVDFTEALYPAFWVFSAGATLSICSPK
myc-tagged NME1 (P15531-2, form named): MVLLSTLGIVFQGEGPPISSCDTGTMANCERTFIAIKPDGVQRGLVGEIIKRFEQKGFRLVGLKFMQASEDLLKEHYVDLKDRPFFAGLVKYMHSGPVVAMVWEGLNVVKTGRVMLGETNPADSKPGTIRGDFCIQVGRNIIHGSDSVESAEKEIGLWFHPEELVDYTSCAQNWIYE

Assays:
Experiment in all cases: co-IP
[1] = molecular target: FLAG-tagged TRIM25 wild-type (human) (UniProt Q14258)
[2] = molecular target: FLAG-tagged TRIM25-PTAA (human) (UniProt Q14258)
[3] = molecular target: FLAG-tagged TRIM25-R54P (human) (UniProt Q14258)

Molecule: myc-tagged G3BP1 (from UniProt Q13283 1-466)
- binding [1]: binds
- binding [2]: no binding
- binding [3]: binds

B1: V5-tagged UPF1 (protein, UniProt Q92900 1-1129)
chain: MSVEAYGPSSQTLTFLDTEEAELLGADTQGSEFEFTDFTLPSQTQTPPGGPGGPGGGGAGGPGGAGAGAAAGQLDAQVGPEGILQNGAVDDSVAKTSQLLAELNFEEDEEDTYYTKDLPIHACSYCGIHDPACVVYCNTSKKWFCNGRGNTSGSHIVNHLVRAKCKEVTLHKDGPLGETVLECYNCGCRNVFLLGFIPAKADSVVVLLCRQPCASQSSLKDINWDSSQWQPLIQDRCFLSWLVKIPSEQEQLRARQITAQQINKLEELWKENPSATLEDLEKPGVDEEPQHVLLRYEDAYQYQNIFGPLVKLEADYDKKLKESQTQDNITVRWDLGLNKKRIAYFTLPKTDSGNEDLVIIWLRDMRLMQGDEICLRYKGDLAPLWKGIGHVIKVPDNYGDEIAIELRSSVGAPVEVTHNFQVDFVWKSTSFDRMQSALKTFAVDETSVSGYIYHKLLGHEVEDVIIKCQLPKRFTAQGLPDLNHSQVYAVKTVLQRPLSLIQGPPGTGKTVTSATIVYHLARQGNGPVLVCAPSNIAVDQLTEKIHQTGLKVVRLCAKSREAIDSPVSFLALHNQIRNMDSMPELQKLQQLKDETGELSSADEKRYRALKRTAERELLMNADVICCTCVGAGDPRLAKMQFRSILIDESTQATEPECMVPVVLGAKQLILVGDHCQLGPVVMCKKAAKAGLSQSLFERLVVLGIRPIRLQVQYRMHPALSAFPSNIFYEGSLQNGVTAADRVKKGFDFQWPQPDKPMFFYVTQGQEEIASSGTSYLNRTEAANVEKITTKLLKAGAKPDQIGIITPYEGQRSYLVQYMQFSGSLHTKLYQEVEIASVDAFQGREKDFIILSCVRANEHQGIGFLNDPRRLNVALTRARYGVIIVGNPKALSKQPLWNHLLNYYKEQKVLVEGPLNNLRESLMQFSKPRKLVNTINPGARFMTTAMYDAREAIIPGSVYDRSSQGRPSSMYFQTHDQIGMISAGPSHVAAMNIPIPFNLVMPPMPPPGYFGQANGPAAGRGTPKGKTGRGGRQKNRFGLPGPSQTNLPNSQASQDVASQPFSQGALTQGYISMSQPSQMSQPGLSQPELSQDSYLGDEFKSQIDVALSQDSTYQGERAYQHGGVTGLSQY
- binding [1]: binds
- binding [3]: binds

B3: myc-tagged G3BP2 (protein, UniProt Q9UN86 1-482)
chain: MVMEKPSPLLVGREFVRQYYTLLNKAPEYLHRFYGRNSSYVHGGVDASGKPQEAVYGQNDIHHKVLSLNFSECHTKIRHVDAHATLSDGVVVQVMGLLSNSGQPERKFMQTFVLAPEGSVPNKFYVHNDMFRYEDEVFGDSEPELDEESEDEVEEEQEERQPSPEPVQENANSGYYEAHPVTNGIEEPLEESSHEPEPEPESETKTEELKPQVEEKNLEELEEKSTTPPPAEPVSLPQEPPKAFSWASVTSKNLPPSGTVSSSGIPPHVKAPVSQPRVEAKPEVQSQPPRVREQRPRERPGFPPRGPRPGRGDMEQNDSDNRRIIRYPDSHQLFVGNLPHDIDENELKEFFMSFGNVVELRINTKGVGGKLPNFGFVVFDDSEPVQRILIAKPIMFRGEVRLNVEEKKTRAARERETRGGGDDRRDIRRNDRGPGGPRGIVGGGMMRDRDGRGPPPRGGMAQKLGSGRGTGQMEGRFTGQRR
- binding [1]: binds
- binding [2]: no binding
- binding [3]: binds

Other lines, results leading:

- binding [1]: no binding
- binding [3]: no binding
Molecule: myc-tagged NME1 (from UniProt P15531-2 1-177) (enzyme)

- binding [1]: binds
- binding [3]: binds
B2: myc-tagged UPF1 (protein, UniProt Q92900 1-1129)
chain: B1 chain
